Assay results taken from the supplement of paper PMC3334620.
Over roughly 33,000 sequences, “E-score (-0.5 to 0.5)” has its median near -0.015; the highest 2% begin near 0.3. The list shows a part of the results.

molecular target: T1, Abf1 (UniProt P14164); assay: PBM E-score (8-mer binding enrichment) (E-score (-0.5 to 0.5)); higher = stronger / more preferred TF binding; conditions: protein concentration: 200 nM; construct: GST-full length
T1 sequence: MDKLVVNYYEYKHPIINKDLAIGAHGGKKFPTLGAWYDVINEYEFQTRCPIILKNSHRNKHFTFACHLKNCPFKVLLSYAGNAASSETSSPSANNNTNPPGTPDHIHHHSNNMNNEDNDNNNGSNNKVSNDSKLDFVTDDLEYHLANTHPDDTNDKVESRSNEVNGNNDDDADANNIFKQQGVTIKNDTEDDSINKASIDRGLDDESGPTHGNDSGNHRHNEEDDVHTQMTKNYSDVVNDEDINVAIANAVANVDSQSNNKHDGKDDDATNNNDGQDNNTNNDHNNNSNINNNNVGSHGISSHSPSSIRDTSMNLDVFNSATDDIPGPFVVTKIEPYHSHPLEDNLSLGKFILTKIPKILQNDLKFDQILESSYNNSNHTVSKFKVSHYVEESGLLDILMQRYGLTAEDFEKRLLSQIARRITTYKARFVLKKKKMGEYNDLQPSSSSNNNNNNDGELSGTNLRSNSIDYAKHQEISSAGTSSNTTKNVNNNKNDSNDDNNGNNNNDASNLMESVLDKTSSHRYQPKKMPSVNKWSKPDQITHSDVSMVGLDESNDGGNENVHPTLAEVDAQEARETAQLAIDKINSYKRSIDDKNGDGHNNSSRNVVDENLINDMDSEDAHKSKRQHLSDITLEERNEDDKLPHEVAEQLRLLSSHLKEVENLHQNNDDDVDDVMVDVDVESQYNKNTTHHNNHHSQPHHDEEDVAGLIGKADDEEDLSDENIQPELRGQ
Procedure: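 Universal 'all 10-mer' protein binding microarrays (Agilent AMADID 015681) probed with GST-tagged S. cerevisiae TFs (full-length or DBD) made by in vitro transcription/translation (PURExpress), about 100-200 nM. Bound TF was detected with fluorescent anti-GST. Each ungapped 8-mer (which stands for itself and its reverse complement) is scored by the PBM enrichment score (E-score), a modified Wilcoxon-Mann-Whitney statistic from -0.5 to +0.5, computed with the Universal PBM Analysis Suite. Scale: above 0.35 generally sequence-specific binding.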

Row | Sequence | PBM E-score
1 | GTTAATTA | 0.247
2 | CTTTAACA | 0.119
3 | AGAGTGAT | 0.387
4 | CGCGGCGA | -0.0396
5 | AACGGACG | 0.065
6 | AGCCGGGA | -0.0729
7 | ACGGTTCT | 0.0581
8 | ATGTCAGC | 0.0322
9 | ATGTTCTC | -0.0935
10 | CTACTTTC | 0.192
11 | AAAATAAA | 0.0577
12 | CGGTCGAC | 0.0163
13 | GTGTGCGA | -0.0531
14 | GTTGAGGA | -0.106
15 | AGTTATGA | 0.0705
16 | ATCGAGTA | -0.086
17 | TCCACTCA | -0.148
18 | CTTTGTGC | 0.0301
19 | ATACCCTC | -0.0637
20 | CCGCATTA | 0.0289
21 | CGGCGAAC | 0.0381
22 | TGATGCCA | 0.121
23 | CGGTTGTA | -0.121
24 | ATTCAAAA | 0.194
25 | CCGGATAG | -0.0305

Row | Sequence | PBM E-score
26 | AATGCAGC | -0.0494
27 | GGGGCATA | -0.184
28 | ACCAAAAG | 0.00795
29 | TAATTTCA | 0.204
30 | AGGCTGCG | -0.206
31 | CCTGGGCC | -0.223
32 | TCATAAGA | 0.00333
33 | CGCGGTAC | 0.0499
34 | TACATCCA | 0.123
35 | ACCGAGTG | -0.0112
36 | GACTCTAA | -0.185
37 | AGTATTCA | -0.0356
38 | TCATCCCA | 0.0819
39 | CCAGTAAA | 0.00508
40 | CGACCGGA | -0.246
41 | GTGGAAGA | -0.0229
42 | ACTGGCGG | -0.124
43 | GTAAGTCA | 0.0282
44 | CTAGGTGC | -0.0851
45 | ACAGAGAA | 0.0471
46 | CGGCCGAC | 0.125
47 | TATTGAGA | 0.241
48 | CCTTTAAG | -0.0765
49 | ACCGGCGG | -0.133
50 | ACGCCCGA | -0.183

Row | Sequence | PBM E-score
51 | CGAAAAAG | 0.146
52 | AAAATTTA | 0.0232
53 | GCATCAAC | -0.133
54 | CCTGTAAG | -0.128
55 | ACTTCCCA | 0.0193
56 | CCGTAACA | 0.118
57 | CGGCTGGC | -0.243
58 | GCGAAAGC | -0.15
59 | AGTACAGG | -0.0351
60 | ATAATGTC | 0.162
61 | AGCATTTG | -0.115
62 | AAAGAAGG | -0.118
63 | ACCAGGGA | -0.0651
64 | CCGGGGAG | -0.0831
65 | AATCAAGT | -0.0747
66 | ACTAGAAT | 0.0333
67 | AACTATGT | 0.0381
68 | ATGTAAGA | 0.142
69 | ATTTGTCA | 0.292
70 | ACACGACG | 0.13
71 | ACTTCCAA | -0.121
72 | ATGCACAT | 0.0932
73 | CAAACCGC | -0.0591
74 | ACGCGCAA | -0.0721
75 | GTGACTCA | -0.0193

Row | Sequence | PBM E-score
76 | ACCACCTG | -0.0958
77 | GCAGTCAC | 0.0632
78 | AAGGGCTC | -0.327
79 | CGATGCCA | -0.286
80 | CACTCATA | 0.202
81 | AATTGTTG | 0.0148
82 | GATAAAGA | 0.13
83 | ACAGATTG | -0.0933
84 | CAAAGTAA | -0.0698
85 | ACCCTTCG | -0.0702
86 | ACTTCAAA | 0.012
87 | AATTTGGA | -0.0236
88 | CGATATAA | 0.203
89 | AGAATTGG | -0.0124
90 | CCGGAAAA | -0.0541
91 | CCATCCGG | -0.186
92 | ACCAATGC | -0.142
93 | CTACACAG | -0.176
94 | GTAGGCAC | -0.174
95 | ACTTTCGG | -0.281
96 | AACGATTC | 0.163
97 | CAAGTCGG | -0.215
98 | ACTACAGG | -0.0838
99 | CAGAGGGC | -0.202
100 | ACTCGGAC | -0.0217

Row | Sequence | PBM E-score
101 | ATGACGAA | 0.319
102 | CTACCAGC | -0.151
103 | CCGTGGGC | 0.0205
104 | AGCCAGTC | -0.198
105 | AGAAGCGG | -0.235
106 | ACTAAGCT | 0.191
107 | AGACTGCC | -0.109
108 | CACCACCG | -0.112
109 | AGTATGAA | 0.135
110 | AGTTTGAG | -0.00798
111 | GGCCGTGA | 0.253
112 | ATAGGGGA | -0.0124
113 | GCAGTCGC | -0.0675
114 | CTTATAGC | 0.0906
115 | CATCCAAC | 0.0408
116 | AGGTACCC | -0.287
117 | ATATGCGC | 0.176
118 | ATATCATA | 0.33
119 | GACGTTGC | 0.106
120 | ATGAGGCA | -0.193
121 | TAGCTAGA | 0.133
122 | AAGTACGG | 0.181
123 | AACCCGGG | -0.24
124 | GAGGGTGA | 0.137
125 | AAGTCCCC | -0.149

Row | Sequence | PBM E-score
126 | CATAGTAG | 0.0339
127 | CTATGAGC | -0.0109
128 | CAAACTTG | -0.183
129 | CAATGCTC | -0.0352
130 | ATTGTAAG | -0.194
131 | CGGCACCG | -0.0847
132 | AATGCCGC | 0.029
133 | CACGACTC | 0.128
134 | GAACAACC | -0.0257
135 | CTTGCTTA | -0.0929
136 | ATCCACCA | -0.0729
137 | CAAGAGCA | -0.279
138 | CCACGCAA | 0.0526
139 | GAAGAGCA | -0.194
140 | ACGCGCAC | -0.0254
141 | TCAACAAA | 0.0431
142 | AACACATA | 0.0739
143 | GTGCCTGA | -0.13
144 | GAAAAGGC | -0.0258
145 | TACACCGA | -0.287
146 | AACCCGGT | -0.0159
147 | ATATGCCA | 0.162
148 | AAACGATG | 0.291
149 | ATATGGGC | 0.0186
150 | TAGCTGCA | -0.105

Row | Sequence | PBM E-score
151 | ACACGGTA | 0.16
152 | ACAACGGT | 0.0626
153 | AATCCTGC | -0.14
154 | TACAGATA | 0.0671
155 | AAAGAGAT | -0.0264
156 | CCACCGAC | -0.307
157 | TAGTTGGA | -0.199
158 | TCGGCTAA | 0.0367
159 | AGACGGTA | -0.0476
160 | AGAATGAA | 0.144
161 | ACTCGAGT | -0.0159
162 | CACCCAGC | -0.252
163 | AACCCGTT | -0.16
164 | GCTCAGAC | -0.189
165 | AATTGGGG | -0.161
166 | AAAACGGG | 0.157
167 | AGGCAGCC | -0.22
168 | CGCCTCCC | -0.333
169 | GAAGCTCA | 0.0423
170 | CCAGAGCA | -0.0849
171 | ACGATTAC | 0.177
172 | GATTAGGC | 0.18

Random excerpt: seven entries already listed
Row | Sequence | PBM E-score
144 | GAAAAGGC | -0.0258
59 | AGTACAGG | -0.0351
146 | AACCCGGT | -0.0159
96 | AACGATTC | 0.163
78 | AAGGGCTC | -0.327
27 | GGGGCATA | -0.184
26 | AATGCAGC | -0.0494
